Counter-ions that a name gives are not always drawn. The list shows a part of the results. Single values of this set are uncertain.

These results are taken from the supplement of paper PMC9744312.

The assay concerns Peyronie's disease tunica albuginea primary fibroblasts. The experiment in a line: inhibition of TGF-beta1-induced alpha-SMA expression (myofibroblast transformation), relative to TGF-beta1-only and untreated controls; higher = stronger inhibition of myofibroblast transformation. The settings on record: 10 µM; TGF-beta1 10 ng/mL; 72 h.
Regarding `CCCS(=O)(=O)Nc1ccc(F)c(C(=O)c2c[nH]c3ncc(-c4ccc(Cl)cc4)cc23)c1F` [Vemurafenib (PLX4032, RG7204)], the “inhibition of TGF-beta1-induced alpha-SMA expression” value (“inhibition” below) was determined as 16.2%.

Take `CCCCCCCCCCCCC[N+](C)(C)Cc1ccccc1` [Benzalkonium chloride]: the “inhibition” value is above 100%.

With `CCOc1ccccc1OCCN[C@H](C)Cc1ccc(OC)c(S(N)(=O)=O)c1` [Tamsulosin hydrochloride], the “inhibition” value was -35.7%. The same measure for `CCn1cc(C(=O)O)c(=O)c2cnc(N3CCCC3)nc21` [Piromidic Acid]: -13.9%; for `O=S(=O)(O)CCS` [Mesna]: -2.79%; for `COc1ccc(-c2nc3cc(C4=NNC(=O)CC4C)ccc3[nH]2)cc1` (stereo not given) [Pimobendan]: 54.9%. On to `NS(=O)(=O)c1cc2c(cc1Cl)N=CNS2(=O)=O` [Chlorothiazide], for which the “inhibition” value was determined as 12.5%.

On to `CN[C@H](CC(C)C)C(=O)N[C@H]1C(=O)N[C@@H](CC(N)=O)C(=O)N[C@H]2C(=O)N[C@H]3C(=O)N[C@H](C(=O)N[C@H](C(=O)O)c4cc(O)cc(O)c4-c4cc3ccc4O)[C@H](O)c3ccc(c(Cl)c3)Oc3cc2cc(c3O[C@@H]2O[C@H](CO)[C@@H](O)[C@H](O)[C@H]2O[C@H]2C[C@](C)(N)[C@H](O)[C@H](C)O2)Oc2ccc(cc2Cl)[C@H]1O` [Vancomycin HCl], for which the “inhibition” value was -22.9%. The same measure for `CNS(=O)(=O)Cc1ccc2[nH]cc(CCN(C)C)c2c1` [Sumatriptan Succinate]: 30.7%; for `NC(=O)c1ncn([C@@H]2O[C@H](CO)[C@@H](O)[C@H]2O)n1` [Ribavirin]: 11.1%.

As to `CCOC(=O)[C@H](CCc1ccccc1)N[C@@H](C)C(=O)N1[C@H](C(=O)O)C[C@@H]2CCC[C@@H]21` [Ramipril], the “inhibition” value was 0.239%. The same measure for `O=C(O)c1cc(=O)c2ccccc2o1` [Chromocarb]: -12.8%; for `NS(=O)(=O)c1cc(C(=O)O)c(NCc2ccco2)cc1Cl` [Furosemide]: 8.15%; for `NCCCC[C@H](NC(=O)[C@@H]1CCCN1C(=O)[C@@H]1CSSC[C@H](NC(=O)CNC(=O)CNC(=O)CN)C(=O)N[C@@H](Cc2ccc(O)cc2)C(=O)N[C@@H](Cc2ccccc2)C(=O)N[C@@H](CCC(N)=O)C(=O)N[C@@H](CC(N)=O)C(=O)N1)C(=O)NCC(N)=O` [Terlipressin Acetate]: 32.4%. As for `CCOc1cc([C@@H](CS(C)(=O)=O)N2C(=O)c3cccc(NC(C)=O)c3C2=O)ccc1OC`, the “inhibition” value worked out at 97.9%. To `CC1=C(C(=O)OC(C)C)C(c2cccc([N+](=O)[O-])c2)C(C(=O)OC2CN(C(c3ccccc3)c3ccccc3)C2)=C(N)N1` (stereo not given) [Azelnidipine] belongs 13.2%; to `Cc1cc(C2CCCCC2)n(O)c(=O)c1` [Ciclopirox], above 100%; to `Cc1cc(C2CCCCC2)n(O)c(=O)c1` [Ciclopirox ethanolamine], 97.2%. For `COc1cc(C(=O)NS(=O)(=O)c2ccccc2C)ccc1Cc1cn(C)c2ccc(NC(=O)OC3CCCC3)cc12` [Zafirlukast], the “inhibition” value is -15.7%.

For `Nc1ccccc1NC(=O)c1ccc(CNC(=O)OCc2cccnc2)cc1` [Entinostat (MS-275)], the “inhibition” value came to 83.5%. The same measure for `CN(C)C(=O)COC(=O)Cc1ccc(OC(=O)c2ccc(NC(=N)N)cc2)cc1` [Camostat Mesilate]: -25.6%; for `N=C(N)NC(=O)c1nc(Cl)c(N)nc1N` [Amiloride HCl dihydrate]: 3.76%; for `N=C(N)NC(=O)c1nc(Cl)c(N)nc1N` [Amiloride HCl]: 11.5%. The same measure for `CCCCOC(=O)c1ccc(N)cc1` [Butamben]: -15.4%; for `N[C@@H]1CCCCN(c2c(F)cc3c(=O)c(C(=O)O)cn(C4CC4)c3c2Cl)C1` [Besifloxacin HCl]: 69.7%; for `CC[C@H]1OC(=O)[C@H](C)[C@@H](O[C@H]2C[C@@](C)(OC)[C@@H](O)[C@H](C)O2)[C@H](C)[C@@H](O[C@@H]2O[C@H](C)C[C@H](N(C)C)[C@H]2O)[C@](C)(OC)C[C@@H](C)C(=O)[C@H](C)[C@@H](O)[C@]1(C)O` [Clarithromycin]: 27.2%. The same measure for `NC(=O)Cc1cccc(C(=O)c2ccccc2)c1N` [Nepafenac]: 11.8%; for `CCCCC1=NC2(CCCC2)C(=O)N1Cc1ccc(-c2ccccc2-c2nnn[nH]2)cc1` [Irbesartan]: 39.7%. Regarding `COCC1=C(C(=O)OC(C)OC(=O)OC(C)C)N2C(=O)[C@@H](NC(=O)/C(=N\OC)c3csc(N)n3)[C@H]2SC1` (stereo not given in full) [Cefpodoxime proxetil], the “inhibition” value amounted to 30.1%. The same measure for `COc1ccc([C@H]2CNC(=O)C2)cc1OC1CCCC1` [S- (+)-Rolipram]: 36.4%. For `COc1cc(Cc2cnc(N)nc2N)cc(OC)c1OC` [Trimethoprim], the “inhibition” value is 28%. For the compound `CN(C(=O)c1ccc(F)cc1C(F)(F)F)C1CCN(c2nnc(-c3ccnn3C)c3ccccc23)CC1`, the “inhibition” value worked out at 18.8%.

On to `CNCC[C@H](Oc1cccc2ccccc12)c1cccs1` [Duloxetine HCl], for which the “inhibition” value was found to be 63.5%. The same measure for `CNCC[C@H](Oc1cccc2ccccc12)c1cccs1` [Duloxetine]: 73.7%; for `CO[C@@]1(NC(=O)Cc2cccs2)C(=O)N2C(C(=O)O)=C(COC(N)=O)CS[C@@H]21` [Cefoxitin sodium]: 15.9%. To `CC1(COc2ccc3c(c2)ncn3-c2ccc3cccc(N4CCC(N)CC4)c3n2)COC1` belongs 95.3%. To `OC[C@@H](O)[C@H](O)[C@@H](O)CO` [Xylitol] belongs -35.5%.

As for `COc1cc2c(cc1OC)C(=O)C(CC1CCN(Cc3ccccc3)CC1)C2` (stereo not given) [Donepezil], the “inhibition” value was determined as 49.7%. To `COc1cc2c(cc1OC)C(=O)C(CC1CCN(Cc3ccccc3)CC1)C2` (stereo not given) [Donepezil HCl] belongs 8.84%; to `CN(C)c1ccc2nc3ccc(=[N+](C)C)cc-3sc2c1` [Methylene Blue], above 100%. To `COc1ccc(C2C(=O)c3ccccc3C2=O)cc1` [Anisindione] belongs 26.5%. The same measure for `Cc1cccc(C)c1NC(=O)C1CCCCN1C` (stereo not given) [Mepivacaine]: 21.2%; for `Cc1cccc(C)c1NC(=O)C1CCCCN1C` (stereo not given) [Mepivacaine HCl]: 6.11%.

On to `CN1C(C(=O)Nc2ccccn2)=C(O)c2sccc2S1(=O)=O` [Tenoxicam], for which the “inhibition” value was 26.1%. The same measure for `N#Cc1ccc2[nH]cc(CCCCN3CCN(c4ccc5oc(C(N)=O)cc5c4)CC3)c2c1` [Vilazodone HCl]: -21.9%; for `Cc1ncc([N+](=O)[O-])n1CC(O)CCl` (stereo not given) [Ornidazole]: 26.8%. With `N=C(N)N` [Guanidine HCl], the “inhibition” value turned out to be 38.2%. The same measure for `C=C[C@H]1CN2CC[C@H]1C[C@@H]2[C@@H](O)c1ccnc2ccc(OC)cc12` [Quinidine sulfate]: 48.3%; for `Cc1c(C(N)=O)cc([N+](=O)[O-])cc1[N+](=O)[O-]` [Dinitolmide]: -18.1%; for `Cn1c(=O)c2[nH]cnc2n(C)c1=O` [Aminophylline]: -3.68%.

Turning to `CS(=O)(=O)c1ccc(C2=C(c3ccccc3)C(=O)OC2)cc1` [Rofecoxib], the “inhibition” value turned out to be 31.6%. To `CN(C)CCC=C1c2ccccc2CCc2ccccc21` [Amitriptyline HCl] belongs 27.7%; to `Cc1ccnc2c1NC(=O)c1cccnc1N2C1CC1` [Nevirapine], -5.91%. The same measure for `C#C[C@]1(O)CC[C@H]2[C@@H]3CCc4cc(OC5CCCC5)ccc4[C@H]3CC[C@@]21C` [Quinestrol]: 46.5%.

With `Cc1[nH]c(=O)c(C#N)cc1-c1ccncc1` [Milrinone], the “inhibition” value is -9.25%. To `FC(F)(F)c1ccc(CNc2ccc(Cc3c[nH]c4ncc(Cl)cc34)cn2)cn1` [Pexidartinib (PLX3397)] belongs -4.07%. Regarding `CC(=O)N[C@@H](CCC(N)=O)C(=O)O` [Aceglutamide], the “inhibition” value was 99.9%. As for `O=NO` [Sodium Nitrite], the “inhibition” value came out at 11.4%.

With `CC(=O)NO` [Acetohydroxamic acid], the “inhibition” value was -16.1%. To `COc1ccc(CCNCC(O)COc2cccc(C)c2)cc1OC` (stereo not given) [Bevantolol hydrochloride] belongs 27.4%; to `CC(C)(Oc1ccc(Cl)cc1)C(=O)O` [Clofibric Acid], 6.64%; to `CC(=O)[C@@]1(O)CC[C@H]2[C@@H]3CCC4=CC(=O)CCC4=C3[C@@H](c3ccc(N(C)C)cc3)C[C@@]21C` [Ulipristal], 16.5%. To `CC1(C)CCC(CN2CCN(c3ccc(C(=O)NS(=O)(=O)c4ccc(NCC5CCOCC5)c([N+](=O)[O-])c4)c(Oc4cnc5[nH]ccc5c4)c3)CC2)=C(c2ccc(Cl)cc2)C1` [Venetoclax (ABT-199, GDC-0199)] belongs 36.2%. The same measure for `CCCCCCCCCCC[C@@H](C[C@@H]1OC(=O)[C@H]1CCCCCC)OC(=O)[C@H](CC(C)C)NC=O` [Orlistat]: 10.6%; for `Cc1ccc(NC(=O)c2ccc(CN3CC[C@H](N(C)C)C3)c(C(F)(F)F)c2)cc1Nc1nccc(-c2cncnc2)n1` [Bafetinib (INNO-406)]: 21.7%; for `CC(C)(S)[C@@H](N)C(=O)O` [Penicillamine]: 30.4%. Regarding `COc1cc(OC)c(C(=O)CCCN2CCCC2)c(OC)c1` [Buflomedil HCl], the “inhibition” value was -7.9%. Turning to `O.O.O.O.O=C([O-])CC(O)(CC(=O)[O-])C(=O)[O-].[Li+].[Li+].[Li+]` [Citric acid trilithium salt tetrahydrate], the “inhibition” value was -19.6%. To `N#CC(c1ccc(Cl)cc1)c1c(Cl)cc(-n2ncc(=O)[nH]c2=O)cc1Cl` (stereo not given) [Diclazuril] belongs -5.14%. To `OCc1cc([C@@H](O)CNCCCCCCOCCOCc2c(Cl)cccc2Cl)ccc1O` [Vilanterol Trifenate] belongs 38.2%; to `CC(C)(C)C(=O)OCOP(=O)(COCCn1cnc2c(N)ncnc21)OCOC(=O)C(C)(C)C` [Adefovir Dipivoxil], -5.02%; to `CCOc1ccc(Cc2cc([C@@H]3O[C@H](SC)[C@@H](O)[C@H](O)[C@H]3O)ccc2Cl)cc1` [Sotagliflozin (LX4211)], 26%. The same measure for `CN1CCC(=C2c3ccccc3CC(=O)c3sccc32)CC1` [Ketotifen Fumarate]: 69.4%; for `COc1ccccc1N1CCN(CC(O)COc2cccc3ccccc23)CC1` (stereo not given) [Naftopidil DiHCl]: -4.85%; for `COc1ccccc1N1CCN(CC(O)COc2cccc3ccccc23)CC1` (stereo not given) [Naftopidil]: 0.231%.
